The assay has as its target ataxia telangiectasia mutated (ATM) kinase (human (endogenous in RPE1)) (UniProt Q13315). Briefly: co-IP.

Protein sequences, listed by entry. Tags and fused reporters are not part of them. Lines headed by an entry give the natural chain unless they say otherwise; changes in a name come on top.
UniProt Q13315: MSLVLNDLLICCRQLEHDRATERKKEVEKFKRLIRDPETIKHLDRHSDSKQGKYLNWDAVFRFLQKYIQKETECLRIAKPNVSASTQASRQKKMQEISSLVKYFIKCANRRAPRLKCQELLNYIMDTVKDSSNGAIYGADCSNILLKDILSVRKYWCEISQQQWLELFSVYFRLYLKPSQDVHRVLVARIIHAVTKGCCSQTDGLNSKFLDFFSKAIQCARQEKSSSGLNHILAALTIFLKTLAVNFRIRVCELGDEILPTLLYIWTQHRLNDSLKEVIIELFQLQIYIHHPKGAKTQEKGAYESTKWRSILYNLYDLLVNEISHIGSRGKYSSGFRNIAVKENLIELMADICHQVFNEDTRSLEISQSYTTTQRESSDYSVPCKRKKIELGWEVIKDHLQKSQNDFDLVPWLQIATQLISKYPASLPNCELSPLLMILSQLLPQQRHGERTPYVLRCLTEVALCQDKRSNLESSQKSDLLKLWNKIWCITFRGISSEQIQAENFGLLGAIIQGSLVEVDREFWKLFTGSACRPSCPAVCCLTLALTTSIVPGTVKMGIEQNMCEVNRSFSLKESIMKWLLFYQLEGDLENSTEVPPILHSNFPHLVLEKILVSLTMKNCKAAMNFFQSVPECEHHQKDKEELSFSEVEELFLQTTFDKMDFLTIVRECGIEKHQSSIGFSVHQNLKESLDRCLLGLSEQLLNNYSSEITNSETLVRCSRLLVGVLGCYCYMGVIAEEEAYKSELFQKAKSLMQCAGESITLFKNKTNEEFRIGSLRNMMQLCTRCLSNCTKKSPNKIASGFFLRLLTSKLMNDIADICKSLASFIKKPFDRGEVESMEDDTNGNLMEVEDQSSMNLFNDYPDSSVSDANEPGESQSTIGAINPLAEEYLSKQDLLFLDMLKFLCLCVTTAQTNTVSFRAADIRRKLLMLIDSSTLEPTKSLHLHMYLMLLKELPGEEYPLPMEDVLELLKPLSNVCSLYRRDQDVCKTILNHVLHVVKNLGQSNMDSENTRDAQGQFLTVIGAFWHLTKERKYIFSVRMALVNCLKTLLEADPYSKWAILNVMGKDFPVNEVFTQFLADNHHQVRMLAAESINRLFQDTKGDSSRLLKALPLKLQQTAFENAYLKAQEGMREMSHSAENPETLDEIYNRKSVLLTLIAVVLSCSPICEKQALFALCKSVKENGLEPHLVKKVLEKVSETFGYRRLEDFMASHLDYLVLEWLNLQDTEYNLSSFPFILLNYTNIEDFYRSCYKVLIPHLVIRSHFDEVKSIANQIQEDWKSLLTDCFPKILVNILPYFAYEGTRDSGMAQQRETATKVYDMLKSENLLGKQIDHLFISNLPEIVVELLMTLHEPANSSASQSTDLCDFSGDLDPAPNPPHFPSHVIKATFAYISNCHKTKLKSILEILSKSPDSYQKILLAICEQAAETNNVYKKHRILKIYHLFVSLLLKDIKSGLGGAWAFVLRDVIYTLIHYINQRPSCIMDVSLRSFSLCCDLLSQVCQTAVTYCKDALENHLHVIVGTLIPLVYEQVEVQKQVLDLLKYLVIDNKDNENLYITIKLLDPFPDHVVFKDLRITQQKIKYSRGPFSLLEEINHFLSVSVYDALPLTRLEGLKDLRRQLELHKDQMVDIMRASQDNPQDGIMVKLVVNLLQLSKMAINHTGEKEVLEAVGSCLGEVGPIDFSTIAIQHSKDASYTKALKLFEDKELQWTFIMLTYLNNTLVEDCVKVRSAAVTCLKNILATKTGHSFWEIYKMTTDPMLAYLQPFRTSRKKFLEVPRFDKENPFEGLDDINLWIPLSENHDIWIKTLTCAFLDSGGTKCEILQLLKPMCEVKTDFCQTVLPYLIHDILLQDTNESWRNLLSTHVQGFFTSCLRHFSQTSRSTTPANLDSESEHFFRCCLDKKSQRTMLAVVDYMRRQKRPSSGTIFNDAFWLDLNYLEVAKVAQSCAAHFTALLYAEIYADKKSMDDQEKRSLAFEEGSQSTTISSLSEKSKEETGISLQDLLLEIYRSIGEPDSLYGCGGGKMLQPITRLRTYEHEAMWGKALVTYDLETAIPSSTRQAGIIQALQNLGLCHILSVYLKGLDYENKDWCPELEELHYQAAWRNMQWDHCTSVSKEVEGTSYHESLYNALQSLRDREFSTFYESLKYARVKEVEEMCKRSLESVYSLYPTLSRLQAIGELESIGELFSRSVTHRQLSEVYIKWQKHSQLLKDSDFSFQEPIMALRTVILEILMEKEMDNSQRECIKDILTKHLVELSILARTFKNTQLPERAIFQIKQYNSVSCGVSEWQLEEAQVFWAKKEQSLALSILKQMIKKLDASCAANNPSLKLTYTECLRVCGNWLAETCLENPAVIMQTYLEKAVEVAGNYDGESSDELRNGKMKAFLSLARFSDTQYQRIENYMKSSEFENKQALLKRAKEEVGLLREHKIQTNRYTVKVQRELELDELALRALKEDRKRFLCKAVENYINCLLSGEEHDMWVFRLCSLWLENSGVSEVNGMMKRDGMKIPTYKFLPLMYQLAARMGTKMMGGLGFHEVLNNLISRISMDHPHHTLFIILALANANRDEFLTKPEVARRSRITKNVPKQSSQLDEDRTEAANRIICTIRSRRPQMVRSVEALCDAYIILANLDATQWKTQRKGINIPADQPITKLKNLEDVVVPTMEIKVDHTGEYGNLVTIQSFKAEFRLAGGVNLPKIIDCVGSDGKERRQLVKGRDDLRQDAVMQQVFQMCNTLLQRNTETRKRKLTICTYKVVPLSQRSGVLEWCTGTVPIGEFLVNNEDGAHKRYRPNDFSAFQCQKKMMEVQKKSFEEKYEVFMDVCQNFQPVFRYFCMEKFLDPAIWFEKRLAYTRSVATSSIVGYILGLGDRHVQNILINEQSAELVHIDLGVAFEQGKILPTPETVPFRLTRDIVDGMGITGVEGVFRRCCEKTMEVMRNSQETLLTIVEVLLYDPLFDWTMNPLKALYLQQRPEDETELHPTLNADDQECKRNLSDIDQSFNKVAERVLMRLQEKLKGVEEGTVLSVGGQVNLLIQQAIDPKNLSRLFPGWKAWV
UniProt P54253: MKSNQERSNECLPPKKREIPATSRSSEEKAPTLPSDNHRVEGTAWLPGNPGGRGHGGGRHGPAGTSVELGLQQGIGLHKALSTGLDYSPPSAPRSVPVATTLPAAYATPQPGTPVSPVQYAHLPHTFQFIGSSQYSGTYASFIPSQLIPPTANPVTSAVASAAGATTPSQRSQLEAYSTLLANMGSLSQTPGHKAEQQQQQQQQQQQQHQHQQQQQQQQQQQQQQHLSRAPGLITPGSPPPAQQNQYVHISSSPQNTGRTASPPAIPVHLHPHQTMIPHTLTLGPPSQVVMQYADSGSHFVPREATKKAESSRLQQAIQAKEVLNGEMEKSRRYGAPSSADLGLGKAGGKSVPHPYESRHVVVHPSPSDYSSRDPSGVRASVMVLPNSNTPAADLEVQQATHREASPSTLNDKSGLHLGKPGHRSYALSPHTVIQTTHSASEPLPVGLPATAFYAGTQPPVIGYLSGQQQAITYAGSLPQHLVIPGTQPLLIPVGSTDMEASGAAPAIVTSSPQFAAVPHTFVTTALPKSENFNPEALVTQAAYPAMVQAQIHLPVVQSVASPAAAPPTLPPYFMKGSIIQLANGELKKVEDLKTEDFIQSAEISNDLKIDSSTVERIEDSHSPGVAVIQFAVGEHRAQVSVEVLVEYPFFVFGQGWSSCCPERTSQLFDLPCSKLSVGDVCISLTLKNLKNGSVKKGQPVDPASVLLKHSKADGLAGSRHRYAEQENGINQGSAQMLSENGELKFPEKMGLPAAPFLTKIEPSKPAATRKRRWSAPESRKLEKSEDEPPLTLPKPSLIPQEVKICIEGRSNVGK

Results are given in words; binding and its absence hold for the method and conditions named. Binding seen in cells or lysates may run through a third protein. Some binding calls cover weakened binding; strength is not graded here.

ataxin-1 (from UniProt P54253 1-815): the binding result is reported as “binds”.

The record behind these values is doi:10.1101/701953.
